PubChem BioAssay AID1508588, Peter MacCallum Cancer Centre | 2020
The deposit covers about 18,000 reagents; below is a part drawn at random. 790 of them (4.4%) count as active. 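Calls rest on a combination of fold-change classes in drug and vehicle arms, not all shown here.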

Assay: 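Which gene losses make BRAF-mutant melanoma cells more responsive to vemurafenib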 (primary screen)
Cells: human WM266.4 melanoma cells (BRAF V600 mutant)
Reagent: siRNA pool against human genes, 40 nM
Time to read-out: 96 h from transfection to read-out
Treatment: vemurafenib 300 nM (about IC25), added 48 h after transfection, for 48 h; comparison arm got DMSO vehicle only
Read-out: 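Cell gain (DAPI nuclei at end minus before drug, mean of two replicates) and medium lactate by absorbance per cell, both as ratio to non-targeting siRNA, also grouped into fold-change classes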
Direction: cell gain with vemurafenib: higher = more cell gain than with non-targeting siRNA; lactate per cell with vemurafenib: higher = more lactate made per cell
Hit rule: 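Enhancement is called by pairing each knock-down's vehicle-arm and drug-arm fold-change classes for viability or glycolysis; which class combinations qualify is not given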
Calls: active = enhances vemurafenib effect; inactive = no enhancement seen

The opening 3 entries, to show the layout:
| target | cell gain with vemurafenib | lactate per cell with vemurafenib | Outcome |
| --- | --- | --- | --- |
| KLF4 | 0.55 | 0.98 | inactive |
| TAS2R40 | 0.69 | 0.52 | inactive |
| TFF2 | 0.67 | 0.8 | inactive |

Results, from the first entry:
| target | cell gain with vemurafenib | lactate per cell with vemurafenib | Outcome |
| --- | --- | --- | --- |
| KLF4 | 0.55 | 0.98 | inactive |
| TAS2R40 | 0.69 | 0.52 | inactive |
| TFF2 | 0.67 | 0.8 | inactive |
| KGD4 | 0.57 | 0.67 | inactive |
| TRIM77 | 0.26 | 1.36 | inactive |
| GRB14 | 0.3 | 1.12 | inactive |
| TAS2R7 | 0.58 | 2.27 | inactive |
| OR11H12 | 0.34 | 0.85 | inactive |
| OR4B1 | 0.81 | 0.72 | inactive |
| CHMP4B | 1.44 | 1.33 | inactive |
| FKBP5 | 0.85 | 1 | inactive |
| PDCL | 0.64 | 1 | inactive |
| CNTRL | 0.37 | 1.42 | inactive |
| PFKP | -0.07 | 2.65 | inactive |
| NPS | 0.77 | 0.5 | inactive |
| OR13J1 | 0.96 | 1.03 | inactive |
| CLDN7 | 0.45 | 1.37 | inactive |
| ATAD3C | 0.93 | 1.02 | inactive |
| PLXNA2 | 0.79 | 0.4 | active |
| TPPP | 0.11 | 0.68 | inactive |
| FASTKD3 | 0.44 | 0.77 | inactive |
| YPEL1 | 0.74 | 0.64 | inactive |
| CRELD1 | 0.64 | 0.73 | inactive |
| GAREM1 | 0.76 | 0.73 | inactive |
| CLDN9 | 0.61 | 1.32 | inactive |
| ULBP2 | 0.56 | 1.62 | inactive |
| ZNF117 | 0.09 | 1 | inactive |
| NBPF7P | 0.64 | 1.38 | inactive |
| SOS2 | 0.22 | 0.59 | inactive |
| ACOX1 | 0.85 | 0.66 | active |
| ZNF785 | 1.08 | 1.01 | inactive |
| HOXD9 | 0.23 | 0.9 | inactive |
| THBS3 | 0.66 | 1.01 | inactive |
| MYO5A | 0.81 | 0.53 | inactive |
